Measurements reported in PubChem BioAssay AID1224828 (NIAID, 2016).

Screen: 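Regulators linking TLR4 signalling to p65 nuclear translocation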 (primary screen)
System: mouse RAW264.7 G9 macrophage reporter cells (GFP-p65, Tnf promoter-mCherry)
Reagents: siRNA pool against mouse genes, 100 nM
Timing: 2 days siRNA transfection, then 40 min LPS before fixation
Conditions: LPS (Salmonella minnesota R595) at 10 ng/ml
Read-out: 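Imaged p65 nuclear translocation ratio, normalised to the plate median, converted to robust z-scores and averaged across two replicates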
Scale: p65 translocation robust z-score: higher = more nuclear NF-kappaB p65 after LPS than the plate median; nuclear/cytoplasmic p65 ratio: higher = more nuclear NF-kappaB p65
Active means: 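Called active when z exceeds 3.3 or falls under -1.56 (median of Tlr4 controls), giving activity score of at least 50; no calls for control wells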
Calls: active = hit (p65 shift raised or lowered); inactive = no clear change
The deposit covers about 17,000 reagents; shown is a random part of them. 762 of all reagents (4.5%) count as active. 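Active calls include both raised and lowered p65 entry, mostly lowered; wells with fewer than 50 cells lack a z-score.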 Raw values are not corrected between plates. Reagents against one gene are numbered here.

p65 translocation robust z-score | nuclear/cytoplasmic p65 ratio, rep 1 | nuclear/cytoplasmic p65 ratio, rep 2 | low cell count flag | Outcome | gene | reagent
-0.29 | 1.52 | 1.31 | enough cells to score | inactive | Prdm4 (PR domain containing 4) | 1
– | 1.34 | 1.43 | fewer than 50 cells per well; well left out of scoring | inactive | Etos1 (ectopic ossification 1) | 1
0.3 | 1.54 | 1.38 | enough cells to score | inactive | Dag1 (dystroglycan 1) | 1
0.48 | 1.55 | 1.43 | enough cells to score | inactive | Kcnb1 | 1
-0.66 | 1.46 | 1.4 | enough cells to score | inactive | Tcf19 (transcription factor 19) | 1
– | 1.5 | 1.61 | fewer than 50 cells per well; well left out of scoring | inactive | Relb (Relb proto-oncogene, NFKB subunit) | 1
-0.71 | 1.42 | 1.37 | enough cells to score | inactive | Sdhaf4 (succinate dehydrogenase complex assembly factor 4) | 1
-0.01 | 1.74 | 1.51 | enough cells to score | inactive | Nufip1 (nuclear FMR1 interacting protein 1) | 1
-0.46 | 1.42 | 1.28 | enough cells to score | inactive | Hibch (3-hydroxyisobutyryl-Coenzyme A hydrolase) | 1
-1.23 | 1.43 | 1.16 | enough cells to score | inactive | Plag1 (pleiomorphic adenoma gene 1) | 1
– | 1.46 | 1.45 | fewer than 50 cells per well; well left out of scoring | inactive | Mtln (mitoregulin) | 1
– | 1.32 | 1.15 | fewer than 50 cells per well; well left out of scoring | inactive | Tut1 (terminal uridylyl transferase 1, U6 snRNA-specific) | 1
-0.52 | 1.48 | 1.46 | enough cells to score | inactive | P2ry14 (purinergic receptor P2Y, G-protein coupled, 14) | 1
-0.88 | 1.19 | 1.34 | enough cells to score | inactive | Zmat5 (zinc finger, matrin type 5) | 1
– | 1.11 | 1.06 | fewer than 50 cells per well; well left out of scoring | inactive | Sgsm3 (small G protein signaling modulator 3) | 1
0.03 | 1.52 | 1.51 | enough cells to score | inactive | Or4f14d (olfactory receptor family 4 subfamily F member 14D) | 1
1.2 | 1.76 | 1.99 | enough cells to score | inactive | Kmt5b (lysine methyltransferase 5B) | 1
1.02 | 1.51 | 1.51 | enough cells to score | inactive | Cd22 (CD22 antigen) | 1
-1.4 | 1.26 | 1.43 | enough cells to score | inactive | Lpar5 (lysophosphatidic acid receptor 5) | 1
1.36 | 1.82 | 1.63 | enough cells to score | inactive | Fto (FTO alpha-ketoglutarate dependent dioxygenase) | 1
2.59 | 2 | 2 | enough cells to score | inactive | Snrnp40 (small nuclear ribonucleoprotein 40 (U5)) | 1
0.58 | 1.61 | 1.6 | enough cells to score | inactive | Eif3m (eukaryotic translation initiation factor 3, subunit M) | 1
– | 1.72 | 1.1 | fewer than 50 cells per well; well left out of scoring | inactive | Rlim (ring finger protein, LIM domain interacting) | 1
-2.05 | 1.26 | 1.41 | enough cells to score | active | Rlim (ring finger protein, LIM domain interacting) | 2
0.81 | 1.51 | 1.56 | enough cells to score | inactive | Mtdh (metadherin) | 1
1.15 | 1.67 | 1.5 | enough cells to score | inactive | Cyc1 (cytochrome c-1) | 1
-2.04 | 1.17 | 1.14 | enough cells to score | active | Cyp2c65 (cytochrome P450, family 2, subfamily c, polypeptide 65) | 1
0.14 | 1.46 | 1.18 | enough cells to score | inactive | Pcdhb7 (protocadherin beta 7) | 1
– | 1.63 | 1.6 | fewer than 50 cells per well; well left out of scoring | inactive | Mvb12b (multivesicular body subunit 12B) | 1
1.28 | 1.59 | 1.39 | enough cells to score | inactive | Slc17a1 | 1
-0.47 | 1.58 | 1.51 | enough cells to score | inactive | C1qb (complement component 1, q subcomponent, beta polypeptide) | 1
0.43 | 1.6 | 1.37 | enough cells to score | inactive | Klra15 (killer cell lectin-like receptor, subfamily A, member 15) | 1
– | 1.31 | 1.24 | fewer than 50 cells per well; well left out of scoring | inactive | 4932425I24RIK | 1
– | 1.25 | 1.31 | fewer than 50 cells per well; well left out of scoring | inactive | Aldoart2 (aldolase 1 A, retrogene 2) | 1
-0.25 | 1.41 | 1.27 | enough cells to score | inactive | Or52x1 (olfactory receptor family 52 subfamily X member 1) | 1
0.09 | 1.82 | 1.59 | enough cells to score | inactive | Mrpl3 (mitochondrial ribosomal protein L3) | 1
– | 1.15 | 1.23 | fewer than 50 cells per well; well left out of scoring | inactive | Tmem175 (transmembrane protein 175) | 1
-0.43 | 1.79 | 1.32 | enough cells to score | inactive | Map2k2 (mitogen-activated protein kinase kinase 2) | 1
– | 1.49 | 1.13 | fewer than 50 cells per well; well left out of scoring | inactive | Rtca (RNA 3'-terminal phosphate cyclase) | 1
0.63 | 1.6 | 1.68 | enough cells to score | inactive | Tas1r2 (taste receptor, type 1, member 2) | 1

Just “nuclear/cytoplasmic p65 ratio, rep 2” (2 entries from above):
Rlim (ring finger protein, LIM domain interacting) #2: 1.41
Mtdh (metadherin): 1.56
